Test results published in the supplement of paper PMC10849652.
The list shows a part of the results.

Sequences of proteins named here, by UniProt entry; tags and fusion partners are left off. A change or cut given only in a name is not applied to a line headed by its entry.
UniProt P49748: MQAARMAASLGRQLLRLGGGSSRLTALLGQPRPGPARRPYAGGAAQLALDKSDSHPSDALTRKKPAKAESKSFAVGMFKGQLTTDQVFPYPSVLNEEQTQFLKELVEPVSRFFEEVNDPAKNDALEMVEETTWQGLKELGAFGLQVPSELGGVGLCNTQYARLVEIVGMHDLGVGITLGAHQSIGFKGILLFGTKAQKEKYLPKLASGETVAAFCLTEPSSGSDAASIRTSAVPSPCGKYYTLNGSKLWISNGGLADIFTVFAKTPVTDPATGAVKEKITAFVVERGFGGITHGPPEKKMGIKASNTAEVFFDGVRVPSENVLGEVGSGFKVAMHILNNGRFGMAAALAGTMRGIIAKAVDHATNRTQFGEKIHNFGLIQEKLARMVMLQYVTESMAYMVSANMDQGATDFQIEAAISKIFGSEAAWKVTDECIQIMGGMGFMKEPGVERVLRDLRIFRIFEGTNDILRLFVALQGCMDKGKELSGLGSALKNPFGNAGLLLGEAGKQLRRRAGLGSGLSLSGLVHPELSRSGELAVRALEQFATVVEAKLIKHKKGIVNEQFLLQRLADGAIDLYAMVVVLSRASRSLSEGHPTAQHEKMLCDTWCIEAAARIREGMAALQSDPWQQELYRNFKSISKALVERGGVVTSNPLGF
UniProt P53396: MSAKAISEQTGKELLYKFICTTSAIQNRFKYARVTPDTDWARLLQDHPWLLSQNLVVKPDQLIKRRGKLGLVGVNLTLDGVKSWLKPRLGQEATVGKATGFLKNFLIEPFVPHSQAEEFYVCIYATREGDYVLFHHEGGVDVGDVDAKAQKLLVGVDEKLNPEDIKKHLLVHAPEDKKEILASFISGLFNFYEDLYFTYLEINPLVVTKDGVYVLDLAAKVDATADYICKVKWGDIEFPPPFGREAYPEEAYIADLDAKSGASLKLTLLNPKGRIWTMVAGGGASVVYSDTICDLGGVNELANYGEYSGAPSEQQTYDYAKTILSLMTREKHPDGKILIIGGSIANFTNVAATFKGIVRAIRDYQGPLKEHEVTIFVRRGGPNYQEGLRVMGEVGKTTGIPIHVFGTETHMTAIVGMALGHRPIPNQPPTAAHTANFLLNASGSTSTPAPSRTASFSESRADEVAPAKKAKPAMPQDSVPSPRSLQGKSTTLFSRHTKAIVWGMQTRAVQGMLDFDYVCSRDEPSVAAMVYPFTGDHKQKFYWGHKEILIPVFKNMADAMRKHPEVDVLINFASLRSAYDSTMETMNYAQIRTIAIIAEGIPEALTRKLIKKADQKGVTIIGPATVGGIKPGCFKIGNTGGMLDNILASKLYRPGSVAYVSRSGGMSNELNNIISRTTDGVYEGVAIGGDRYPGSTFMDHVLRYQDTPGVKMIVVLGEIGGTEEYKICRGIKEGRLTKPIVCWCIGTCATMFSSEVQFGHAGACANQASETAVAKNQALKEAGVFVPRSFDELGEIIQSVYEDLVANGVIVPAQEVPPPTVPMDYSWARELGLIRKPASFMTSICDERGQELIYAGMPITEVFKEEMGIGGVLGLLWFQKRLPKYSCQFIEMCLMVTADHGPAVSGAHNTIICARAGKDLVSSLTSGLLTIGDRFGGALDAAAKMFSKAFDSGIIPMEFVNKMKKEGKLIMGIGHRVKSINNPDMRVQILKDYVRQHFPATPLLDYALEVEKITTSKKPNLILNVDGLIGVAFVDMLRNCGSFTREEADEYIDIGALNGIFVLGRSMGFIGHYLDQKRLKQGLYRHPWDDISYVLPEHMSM
UniProt Q9NP58: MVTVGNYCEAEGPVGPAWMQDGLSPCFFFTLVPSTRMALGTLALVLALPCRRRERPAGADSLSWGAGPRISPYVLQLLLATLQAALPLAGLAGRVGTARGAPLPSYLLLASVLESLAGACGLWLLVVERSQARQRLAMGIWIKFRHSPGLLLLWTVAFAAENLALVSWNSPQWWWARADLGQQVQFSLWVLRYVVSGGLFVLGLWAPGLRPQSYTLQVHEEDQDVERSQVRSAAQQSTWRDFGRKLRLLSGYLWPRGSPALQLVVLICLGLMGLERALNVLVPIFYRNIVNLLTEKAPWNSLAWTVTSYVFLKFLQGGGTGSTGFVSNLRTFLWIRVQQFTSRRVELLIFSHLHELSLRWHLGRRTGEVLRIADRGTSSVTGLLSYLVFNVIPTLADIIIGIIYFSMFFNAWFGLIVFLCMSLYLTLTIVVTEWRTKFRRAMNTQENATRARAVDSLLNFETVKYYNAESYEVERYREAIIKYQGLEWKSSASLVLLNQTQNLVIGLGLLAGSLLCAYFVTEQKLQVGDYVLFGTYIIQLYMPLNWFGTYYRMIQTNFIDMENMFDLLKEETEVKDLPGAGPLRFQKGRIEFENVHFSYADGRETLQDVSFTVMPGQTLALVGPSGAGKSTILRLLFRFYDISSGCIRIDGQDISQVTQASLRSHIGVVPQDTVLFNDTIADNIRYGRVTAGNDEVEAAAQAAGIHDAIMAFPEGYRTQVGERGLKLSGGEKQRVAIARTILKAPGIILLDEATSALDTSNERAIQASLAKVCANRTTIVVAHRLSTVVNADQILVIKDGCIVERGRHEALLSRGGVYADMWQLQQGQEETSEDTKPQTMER
UniProt Q9H3P7: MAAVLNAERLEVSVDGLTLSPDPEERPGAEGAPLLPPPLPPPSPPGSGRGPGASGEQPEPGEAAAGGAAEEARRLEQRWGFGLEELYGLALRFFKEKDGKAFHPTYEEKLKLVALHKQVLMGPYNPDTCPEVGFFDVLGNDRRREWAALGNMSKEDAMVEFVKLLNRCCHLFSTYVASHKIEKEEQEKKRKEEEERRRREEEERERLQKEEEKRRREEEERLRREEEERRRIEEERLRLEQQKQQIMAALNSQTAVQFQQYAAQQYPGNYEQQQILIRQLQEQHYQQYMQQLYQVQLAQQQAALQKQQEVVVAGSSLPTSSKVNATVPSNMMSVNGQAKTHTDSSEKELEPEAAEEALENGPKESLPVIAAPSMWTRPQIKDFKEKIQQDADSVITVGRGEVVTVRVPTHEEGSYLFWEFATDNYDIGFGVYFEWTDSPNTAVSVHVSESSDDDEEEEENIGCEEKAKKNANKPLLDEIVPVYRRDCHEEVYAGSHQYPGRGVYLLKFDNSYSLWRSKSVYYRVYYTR
UniProt Q9NX38: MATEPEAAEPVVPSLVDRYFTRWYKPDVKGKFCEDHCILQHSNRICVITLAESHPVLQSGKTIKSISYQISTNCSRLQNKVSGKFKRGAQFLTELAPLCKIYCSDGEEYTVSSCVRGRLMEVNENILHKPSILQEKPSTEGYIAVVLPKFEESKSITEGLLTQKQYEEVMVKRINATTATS
UniProt Q9NUT2: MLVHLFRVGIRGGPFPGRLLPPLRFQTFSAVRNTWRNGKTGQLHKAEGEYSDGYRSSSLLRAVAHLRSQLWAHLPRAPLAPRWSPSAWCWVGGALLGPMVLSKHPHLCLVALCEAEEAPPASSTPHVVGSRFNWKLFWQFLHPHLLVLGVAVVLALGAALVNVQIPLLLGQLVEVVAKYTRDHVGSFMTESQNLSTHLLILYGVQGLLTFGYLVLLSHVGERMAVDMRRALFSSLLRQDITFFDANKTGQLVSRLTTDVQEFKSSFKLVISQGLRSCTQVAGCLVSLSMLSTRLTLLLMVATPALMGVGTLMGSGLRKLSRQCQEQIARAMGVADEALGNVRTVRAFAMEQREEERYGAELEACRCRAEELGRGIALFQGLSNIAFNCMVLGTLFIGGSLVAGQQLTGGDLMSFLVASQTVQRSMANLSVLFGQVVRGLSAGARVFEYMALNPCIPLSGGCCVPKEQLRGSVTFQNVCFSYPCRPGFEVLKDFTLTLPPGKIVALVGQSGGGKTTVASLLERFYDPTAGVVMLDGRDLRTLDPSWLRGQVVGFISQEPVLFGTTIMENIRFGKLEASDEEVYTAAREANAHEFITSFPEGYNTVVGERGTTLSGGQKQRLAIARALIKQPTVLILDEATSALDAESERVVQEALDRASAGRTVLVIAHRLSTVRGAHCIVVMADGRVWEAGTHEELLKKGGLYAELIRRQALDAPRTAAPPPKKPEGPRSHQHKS
UniProt Q9BTE6: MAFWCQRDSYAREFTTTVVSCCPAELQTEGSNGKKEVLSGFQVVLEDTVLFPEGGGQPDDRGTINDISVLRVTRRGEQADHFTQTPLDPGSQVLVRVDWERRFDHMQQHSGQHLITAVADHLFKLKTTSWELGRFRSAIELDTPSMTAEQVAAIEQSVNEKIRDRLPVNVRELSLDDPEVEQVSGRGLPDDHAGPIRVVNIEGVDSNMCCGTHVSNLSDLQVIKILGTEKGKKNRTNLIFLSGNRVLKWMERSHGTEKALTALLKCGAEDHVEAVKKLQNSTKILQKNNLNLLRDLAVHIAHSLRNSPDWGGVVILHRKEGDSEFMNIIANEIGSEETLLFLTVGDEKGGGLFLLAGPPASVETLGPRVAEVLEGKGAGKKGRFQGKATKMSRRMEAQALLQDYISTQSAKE
UniProt Q9NRN7: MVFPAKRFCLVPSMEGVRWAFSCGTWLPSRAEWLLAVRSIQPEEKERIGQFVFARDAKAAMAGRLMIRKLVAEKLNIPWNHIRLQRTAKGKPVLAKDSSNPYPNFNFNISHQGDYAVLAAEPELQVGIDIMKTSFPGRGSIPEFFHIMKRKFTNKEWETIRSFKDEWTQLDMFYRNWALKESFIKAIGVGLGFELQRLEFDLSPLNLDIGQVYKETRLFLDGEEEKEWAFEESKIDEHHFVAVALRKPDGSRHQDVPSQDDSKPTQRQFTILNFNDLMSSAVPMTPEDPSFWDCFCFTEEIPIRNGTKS
UniProt O75027: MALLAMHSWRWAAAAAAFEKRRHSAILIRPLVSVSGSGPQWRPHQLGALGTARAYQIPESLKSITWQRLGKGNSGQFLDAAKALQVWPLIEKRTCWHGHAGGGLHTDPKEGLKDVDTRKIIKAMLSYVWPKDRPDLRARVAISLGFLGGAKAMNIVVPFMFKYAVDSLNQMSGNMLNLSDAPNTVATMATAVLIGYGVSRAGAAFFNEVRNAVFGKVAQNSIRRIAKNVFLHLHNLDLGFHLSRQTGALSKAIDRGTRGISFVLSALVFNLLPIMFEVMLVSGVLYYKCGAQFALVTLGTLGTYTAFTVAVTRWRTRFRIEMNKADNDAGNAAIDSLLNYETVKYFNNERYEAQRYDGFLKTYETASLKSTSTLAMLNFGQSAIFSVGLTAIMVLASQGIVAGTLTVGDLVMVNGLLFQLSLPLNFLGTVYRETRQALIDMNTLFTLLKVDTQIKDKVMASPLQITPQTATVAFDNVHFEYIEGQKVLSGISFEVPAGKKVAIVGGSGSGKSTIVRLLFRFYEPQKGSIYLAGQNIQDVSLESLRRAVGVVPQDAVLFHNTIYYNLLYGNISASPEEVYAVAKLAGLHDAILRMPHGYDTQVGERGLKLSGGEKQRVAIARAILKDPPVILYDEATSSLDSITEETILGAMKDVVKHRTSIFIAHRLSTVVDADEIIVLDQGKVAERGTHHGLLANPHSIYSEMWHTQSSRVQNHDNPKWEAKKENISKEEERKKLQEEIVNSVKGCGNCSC
UniProt Q9NUQ8: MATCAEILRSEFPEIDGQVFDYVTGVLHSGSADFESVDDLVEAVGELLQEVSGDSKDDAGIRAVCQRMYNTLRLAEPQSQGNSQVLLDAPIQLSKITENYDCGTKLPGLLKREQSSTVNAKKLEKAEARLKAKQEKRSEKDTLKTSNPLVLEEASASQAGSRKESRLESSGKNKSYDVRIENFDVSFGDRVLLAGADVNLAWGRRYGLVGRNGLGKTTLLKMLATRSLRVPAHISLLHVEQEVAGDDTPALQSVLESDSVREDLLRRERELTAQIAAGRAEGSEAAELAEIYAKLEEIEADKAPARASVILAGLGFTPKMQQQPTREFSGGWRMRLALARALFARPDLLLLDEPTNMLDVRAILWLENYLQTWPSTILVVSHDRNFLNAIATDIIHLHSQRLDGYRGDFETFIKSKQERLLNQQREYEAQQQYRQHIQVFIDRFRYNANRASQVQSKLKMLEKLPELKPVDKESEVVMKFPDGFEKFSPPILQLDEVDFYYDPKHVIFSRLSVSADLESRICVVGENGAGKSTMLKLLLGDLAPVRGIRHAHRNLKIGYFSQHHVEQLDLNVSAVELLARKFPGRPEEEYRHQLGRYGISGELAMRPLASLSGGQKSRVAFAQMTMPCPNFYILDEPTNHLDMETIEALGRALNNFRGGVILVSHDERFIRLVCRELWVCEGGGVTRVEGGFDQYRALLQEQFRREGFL
UniProt Q9BR61: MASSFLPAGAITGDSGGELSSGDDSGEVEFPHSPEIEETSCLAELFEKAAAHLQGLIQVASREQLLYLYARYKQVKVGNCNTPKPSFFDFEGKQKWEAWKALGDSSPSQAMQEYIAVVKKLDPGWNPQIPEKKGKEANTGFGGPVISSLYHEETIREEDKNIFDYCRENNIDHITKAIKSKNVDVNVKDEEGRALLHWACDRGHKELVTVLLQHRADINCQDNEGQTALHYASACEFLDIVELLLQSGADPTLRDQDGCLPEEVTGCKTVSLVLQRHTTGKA

compound: C1CCN(C1)C(=O)NC2=CC=CC(=C2)NC3=NC=C(C(=N3)NCCC4=CN=CN4)Br; assay: log2 fold change, soluble protein after heating vs DMSO (PISA); higher = thermal stabilisation; K562 lysate, 10 uM; active = over 0.2 and 3.5 SD of the protein, either way, in both replicates (recomputed)
Outline: (§1)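 Thermal stability, expressed as log-two fold change relative to solvent controls, is given from duplicates. Crude K562 extract in PBS pH 7.4 with 1 mM MgCl2, at 1 mg/mL protein, was treated with 10 μM compound for 30 min and heated in aliquots for 3 min across 48°C-58°C. After pooling, adjustment to 0.5% NP-40 at 4°C and centrifugation at 21,000xg for 90 min, supernatant protein was measured by TMTpro 16plex LC-MS/MS with channel sums equalised.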

log2 fold change, inactive:
ACADVL isoform 3 (UniProt P49748) -0.039
ABCC4 (UniProt O15439) -0.001
ABCE1 (UniProt H0Y990) 0.085
ABCE1 (UniProt P61221) 0.011
ABHD5 (UniProt Q8WTS1) -0.084
ACADS (UniProt P16219) 0.01
ACLY (UniProt P53396) 0.002
ABCB6 (UniProt Q9NP58) -0.029
AATF (UniProt Q9NY61) 0.08
ACOT13 (UniProt Q9NPJ3) 0.061
ABI1 isoform 9 (UniProt Q8IZP0) 0.006
ACACA isoform 4 (UniProt Q13085) 0.003
ACBD3 (UniProt Q9H3P7) -0.016
ABITRAM (UniProt Q9NX38) -0.003
ABCB8 (UniProt Q9NUT2) -0.06
ABCC5 (UniProt O15440) -0.038
AARSD1 isoform 3 (UniProt Q9BTE6) -0.007
AASDHPPT (UniProt Q9NRN7) 0.005
ABCA3 (UniProt Q99758) -0.118
ABCC1 (UniProt P33527) -0.009
ABCB7 isoform 2 (UniProt O75027) -0.002
ABCF3 (UniProt Q9NUQ8) 0.022
ACADM isoform 2 (UniProt P11310) -0.032
ABCA4 (UniProt P78363) 0.032
AAK1, A0A096LP25 0.356
ABHD11 (UniProt Q8NFV4) -0.047
AAGAB (UniProt Q6PD74) -0.007
ACBD6 (UniProt Q9BR61) -0.044
ABCF2 isoform 2 (UniProt Q9UG63) 0.049
ABHD16A (UniProt O95870) 0.014
ACCS (UniProt Q96QU6) -0.04
ACACB (UniProt O00763) -0.005

compound: C1CN(CCC1(CC2=CC=C(C=C2)Cl)N)C3=NC=NC4=C3C=CN4; assay: as above
Outline: as §1

log2 fold change, inactive:
ACADVL isoform 3 (UniProt P49748) -0.002
ABCC4 (UniProt O15439) -0.002
ABCE1 (UniProt H0Y990) -0.129
ABCE1 (UniProt P61221) -0.006
ABHD5 (UniProt Q8WTS1) -0.046
ACADS (UniProt P16219) 0.027
ACLY (UniProt P53396) 0.019
ABCB6 (UniProt Q9NP58) 0.026
AATF (UniProt Q9NY61) -0.026
ACOT13 (UniProt Q9NPJ3) 0.034
ABI1 isoform 9 (UniProt Q8IZP0) 0.004
ACACA isoform 4 (UniProt Q13085) 0.024
ACBD3 (UniProt Q9H3P7) 0.028
ABITRAM (UniProt Q9NX38) 0.038
ABCB8 (UniProt Q9NUT2) 0.015
ABCC5 (UniProt O15440) 0.072
AARSD1 isoform 3 (UniProt Q9BTE6) -0.017
AASDHPPT (UniProt Q9NRN7) 0.026
ABCA3 (UniProt Q99758) 0
ABCC1 (UniProt P33527) 0.038
ABCB7 isoform 2 (UniProt O75027) -0.015
ABCF3 (UniProt Q9NUQ8) -0.033
ACADM isoform 2 (UniProt P11310) -0.003
ABCA4 (UniProt P78363) 0.065
AAK1, A0A096LP25 -0.129
ABHD11 (UniProt Q8NFV4) 0.015
AAGAB (UniProt Q6PD74) -0.028
ACBD6 (UniProt Q9BR61) -0.01
ABCF2 isoform 2 (UniProt Q9UG63) 0.016
ABHD16A (UniProt O95870) 0.064
ACCS (UniProt Q96QU6) 0.135
ACACB (UniProt O00763) 0.015

compound: C1COCCN1CCN2C3=CC=CC=C3N=C2NC(=O)C4=CC(=CC=C4)[N+](=O)[O-] [IRAK-1-4 Inhibitor I]; assay: as above
Outline: as §1

log2 fold change, inactive:
ACADVL isoform 3 (UniProt P49748) 0.004
ABCC4 (UniProt O15439) 0.017
ABCE1 (UniProt H0Y990) 0.234
ABCE1 (UniProt P61221) 0.151
ABHD5 (UniProt Q8WTS1) -0.048
ACADS (UniProt P16219) 0.017
ACLY (UniProt P53396) -0.01
ABCB6 (UniProt Q9NP58) -0.047
AATF (UniProt Q9NY61) -0.013
ACOT13 (UniProt Q9NPJ3) -0.002
ABI1 isoform 9 (UniProt Q8IZP0) -0.021
ACACA isoform 4 (UniProt Q13085) 0.005
ACBD3 (UniProt Q9H3P7) 0.003
ABITRAM (UniProt Q9NX38) 0.004
ABCB8 (UniProt Q9NUT2) 0.041
ABCC5 (UniProt O15440) -0.067
AARSD1 isoform 3 (UniProt Q9BTE6) -0.024
AASDHPPT (UniProt Q9NRN7) -0.012
ABCA3 (UniProt Q99758) 0.114
ABCC1 (UniProt P33527) 0.023
ABCB7 isoform 2 (UniProt O75027) -0.054
ABCF3 (UniProt Q9NUQ8) -0.037
ACADM isoform 2 (UniProt P11310) -0.007
ABCA4 (UniProt P78363) 0.059
AAK1, A0A096LP25 0.121
ABHD11 (UniProt Q8NFV4) -0.014
AAGAB (UniProt Q6PD74) -0.023
ACBD6 (UniProt Q9BR61) 0.019
ABCF2 isoform 2 (UniProt Q9UG63) -0.047
ABHD16A (UniProt O95870) -0.006
ACCS (UniProt Q96QU6) 0.112
ACACB (UniProt O00763) 0.025
